Results are given in words; binding and its absence hold for the method and conditions named. For some of these results: Binding seen in cells or lysates may run through a third protein. Some results given as binding are weak or reduced against the parent protein; the word gives no strength.
Assays:
[1] = target: ATG16L1 (recombinant, within the ATG16L1-(StrepII^2x)ATG5–ATG12 complex) (UniProt Q676U5); experiment: cross-linking
[2] = target: V1H-FLAG (full length human V1H, transcript variant 1) (human) (UniProt Q9UI12); experiment: co-IP
[3] = target: short V1H-FLAG (lacking exon 7) (human) (UniProt Q9UI12); experiment: co-IP
V1H(1-351)-FLAG (human) = V1H(1-351)-FLAG (human) (UniProt Q9UI12); experiment: co-IP

By UniProt entry, the sequences of proteins in these tests, tags left out. Where a name states a change or a piece, a line headed by the entry shows the natural chain unless it says otherwise. Chains listed by the source or under a name are the forms on record and can include a tag or linker. Residues count along the entry.
UniProt Q676U5: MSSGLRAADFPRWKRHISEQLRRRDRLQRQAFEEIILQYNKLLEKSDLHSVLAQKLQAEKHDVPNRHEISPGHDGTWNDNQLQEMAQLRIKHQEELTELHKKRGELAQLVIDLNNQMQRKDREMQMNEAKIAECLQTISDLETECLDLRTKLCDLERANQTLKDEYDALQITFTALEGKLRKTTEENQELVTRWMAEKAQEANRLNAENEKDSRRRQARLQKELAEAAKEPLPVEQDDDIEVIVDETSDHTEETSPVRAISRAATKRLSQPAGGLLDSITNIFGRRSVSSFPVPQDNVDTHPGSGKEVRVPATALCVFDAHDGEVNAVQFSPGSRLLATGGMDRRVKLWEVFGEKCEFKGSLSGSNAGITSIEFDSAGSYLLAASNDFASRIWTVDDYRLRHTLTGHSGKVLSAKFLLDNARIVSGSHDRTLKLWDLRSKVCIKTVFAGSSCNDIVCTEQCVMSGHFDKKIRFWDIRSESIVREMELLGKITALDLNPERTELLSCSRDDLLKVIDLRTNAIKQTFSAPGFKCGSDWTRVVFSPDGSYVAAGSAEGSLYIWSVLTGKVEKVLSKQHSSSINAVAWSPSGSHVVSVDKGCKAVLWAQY
UniProt Q9UI12: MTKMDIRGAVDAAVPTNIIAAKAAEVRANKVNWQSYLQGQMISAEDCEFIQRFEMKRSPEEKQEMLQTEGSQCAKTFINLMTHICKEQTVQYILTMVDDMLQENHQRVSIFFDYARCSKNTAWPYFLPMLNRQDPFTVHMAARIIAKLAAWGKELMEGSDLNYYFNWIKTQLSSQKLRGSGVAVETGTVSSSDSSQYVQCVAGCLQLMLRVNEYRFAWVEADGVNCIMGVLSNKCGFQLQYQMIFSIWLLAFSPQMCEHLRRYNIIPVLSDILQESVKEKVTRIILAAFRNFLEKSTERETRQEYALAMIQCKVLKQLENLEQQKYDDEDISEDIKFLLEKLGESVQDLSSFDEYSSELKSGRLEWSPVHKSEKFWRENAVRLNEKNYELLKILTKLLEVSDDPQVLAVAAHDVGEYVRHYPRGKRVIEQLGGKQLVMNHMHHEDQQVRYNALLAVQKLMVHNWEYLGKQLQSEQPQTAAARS
V1H(1-351)-FLAG: residues 1-351 of Q9UI12
short V1H-FLAG (lacking exon 7) (Q9UI12, form named): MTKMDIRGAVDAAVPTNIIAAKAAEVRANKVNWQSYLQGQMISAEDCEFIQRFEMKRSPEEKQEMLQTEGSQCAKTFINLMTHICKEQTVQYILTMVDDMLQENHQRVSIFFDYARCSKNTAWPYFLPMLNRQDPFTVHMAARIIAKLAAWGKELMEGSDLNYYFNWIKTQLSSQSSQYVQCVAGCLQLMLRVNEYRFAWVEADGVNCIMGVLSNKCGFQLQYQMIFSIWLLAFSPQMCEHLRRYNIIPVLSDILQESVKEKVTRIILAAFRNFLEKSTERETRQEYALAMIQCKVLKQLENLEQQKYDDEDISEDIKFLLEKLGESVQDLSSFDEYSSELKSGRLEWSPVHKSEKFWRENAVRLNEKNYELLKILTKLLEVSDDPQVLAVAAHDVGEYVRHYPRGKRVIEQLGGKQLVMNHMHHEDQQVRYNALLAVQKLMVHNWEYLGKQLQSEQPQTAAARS

Substance | binding [1] | binding [2] | binding [3] | binding (V1H(1-351)-FLAG (human))
V-ATPase V1H subunit (endogenous, within the purified SidK/V-ATPase) (from UniProt Q9UI12 1-483) | binds |  |  | 
endogenous ATG16L1 (from UniProt Q676U5 1-607) |  | binds | binds | binds

From article doi:10.1101/2023.12.19.572309 (bioRxiv, 2023)
